Drawing on publication PMC8785526, this text covers binding for one substance.

Sequences of proteins named here, by UniProt entry; tags and fusion partners are left off.
UniProt Q96L73: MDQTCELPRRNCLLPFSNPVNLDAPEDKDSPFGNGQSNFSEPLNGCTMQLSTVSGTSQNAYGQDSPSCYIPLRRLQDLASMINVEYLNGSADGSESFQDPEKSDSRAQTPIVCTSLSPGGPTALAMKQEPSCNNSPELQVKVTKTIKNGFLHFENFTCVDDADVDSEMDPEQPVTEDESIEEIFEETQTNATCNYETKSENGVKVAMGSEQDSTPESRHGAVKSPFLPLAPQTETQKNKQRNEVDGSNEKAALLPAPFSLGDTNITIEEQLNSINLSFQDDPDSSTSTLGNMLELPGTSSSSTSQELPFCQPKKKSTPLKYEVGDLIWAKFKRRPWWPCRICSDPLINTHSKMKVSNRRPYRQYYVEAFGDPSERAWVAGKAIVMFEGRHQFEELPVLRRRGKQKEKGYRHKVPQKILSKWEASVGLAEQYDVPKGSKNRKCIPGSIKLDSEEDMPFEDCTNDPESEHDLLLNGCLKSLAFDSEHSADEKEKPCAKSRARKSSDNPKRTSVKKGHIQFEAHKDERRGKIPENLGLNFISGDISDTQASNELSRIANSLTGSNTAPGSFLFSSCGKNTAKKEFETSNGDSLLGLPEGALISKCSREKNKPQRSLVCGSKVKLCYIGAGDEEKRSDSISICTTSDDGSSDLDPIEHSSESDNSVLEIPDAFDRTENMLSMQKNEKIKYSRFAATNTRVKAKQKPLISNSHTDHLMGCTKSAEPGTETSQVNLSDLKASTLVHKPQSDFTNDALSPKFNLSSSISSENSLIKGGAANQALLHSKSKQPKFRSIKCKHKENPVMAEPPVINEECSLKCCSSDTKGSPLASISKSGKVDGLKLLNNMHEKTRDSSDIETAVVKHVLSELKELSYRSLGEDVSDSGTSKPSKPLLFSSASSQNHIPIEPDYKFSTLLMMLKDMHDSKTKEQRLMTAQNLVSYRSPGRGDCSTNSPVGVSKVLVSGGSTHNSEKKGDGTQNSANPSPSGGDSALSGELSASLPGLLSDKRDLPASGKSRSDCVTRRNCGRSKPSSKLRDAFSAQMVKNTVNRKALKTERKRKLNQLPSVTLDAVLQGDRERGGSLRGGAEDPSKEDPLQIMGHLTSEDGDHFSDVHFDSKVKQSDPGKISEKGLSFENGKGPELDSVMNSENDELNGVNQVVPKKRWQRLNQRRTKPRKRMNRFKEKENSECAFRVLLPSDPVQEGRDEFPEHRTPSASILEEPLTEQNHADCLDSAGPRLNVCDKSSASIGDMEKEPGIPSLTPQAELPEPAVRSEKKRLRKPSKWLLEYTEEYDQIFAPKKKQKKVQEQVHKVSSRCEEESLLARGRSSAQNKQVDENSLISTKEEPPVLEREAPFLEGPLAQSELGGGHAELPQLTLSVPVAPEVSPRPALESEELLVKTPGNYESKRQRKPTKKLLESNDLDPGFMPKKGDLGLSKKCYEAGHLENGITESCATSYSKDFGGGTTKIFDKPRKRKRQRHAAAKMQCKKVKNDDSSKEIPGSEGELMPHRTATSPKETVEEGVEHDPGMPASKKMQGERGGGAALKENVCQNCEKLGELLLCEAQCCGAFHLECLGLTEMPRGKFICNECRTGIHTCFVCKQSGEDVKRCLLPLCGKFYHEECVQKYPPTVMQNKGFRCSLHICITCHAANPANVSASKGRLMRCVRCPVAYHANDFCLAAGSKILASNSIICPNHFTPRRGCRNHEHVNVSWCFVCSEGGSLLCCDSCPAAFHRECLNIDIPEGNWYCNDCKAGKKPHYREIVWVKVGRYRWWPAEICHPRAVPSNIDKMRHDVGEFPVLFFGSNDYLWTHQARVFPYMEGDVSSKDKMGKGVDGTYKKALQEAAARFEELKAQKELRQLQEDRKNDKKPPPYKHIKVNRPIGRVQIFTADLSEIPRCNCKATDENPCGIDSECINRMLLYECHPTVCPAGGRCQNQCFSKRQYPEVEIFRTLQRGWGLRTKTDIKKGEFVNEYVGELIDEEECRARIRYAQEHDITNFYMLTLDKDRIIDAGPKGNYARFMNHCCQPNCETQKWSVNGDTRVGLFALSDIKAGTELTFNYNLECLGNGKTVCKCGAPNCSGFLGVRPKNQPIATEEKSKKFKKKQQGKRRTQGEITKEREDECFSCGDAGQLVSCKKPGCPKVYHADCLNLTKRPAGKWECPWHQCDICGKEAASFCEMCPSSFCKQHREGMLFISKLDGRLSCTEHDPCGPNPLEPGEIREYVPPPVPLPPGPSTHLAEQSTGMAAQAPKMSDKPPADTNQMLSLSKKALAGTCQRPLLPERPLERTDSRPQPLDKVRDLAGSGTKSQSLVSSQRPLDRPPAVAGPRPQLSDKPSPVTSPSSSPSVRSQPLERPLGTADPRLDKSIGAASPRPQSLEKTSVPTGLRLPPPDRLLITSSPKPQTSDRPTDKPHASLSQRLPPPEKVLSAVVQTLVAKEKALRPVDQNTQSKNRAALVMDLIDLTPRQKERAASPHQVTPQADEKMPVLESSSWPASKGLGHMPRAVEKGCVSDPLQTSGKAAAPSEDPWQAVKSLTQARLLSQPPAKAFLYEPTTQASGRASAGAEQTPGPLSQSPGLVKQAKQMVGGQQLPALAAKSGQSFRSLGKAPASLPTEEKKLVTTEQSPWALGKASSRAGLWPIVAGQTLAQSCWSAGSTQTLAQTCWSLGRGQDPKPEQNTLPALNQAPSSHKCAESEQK
UniProt O60264: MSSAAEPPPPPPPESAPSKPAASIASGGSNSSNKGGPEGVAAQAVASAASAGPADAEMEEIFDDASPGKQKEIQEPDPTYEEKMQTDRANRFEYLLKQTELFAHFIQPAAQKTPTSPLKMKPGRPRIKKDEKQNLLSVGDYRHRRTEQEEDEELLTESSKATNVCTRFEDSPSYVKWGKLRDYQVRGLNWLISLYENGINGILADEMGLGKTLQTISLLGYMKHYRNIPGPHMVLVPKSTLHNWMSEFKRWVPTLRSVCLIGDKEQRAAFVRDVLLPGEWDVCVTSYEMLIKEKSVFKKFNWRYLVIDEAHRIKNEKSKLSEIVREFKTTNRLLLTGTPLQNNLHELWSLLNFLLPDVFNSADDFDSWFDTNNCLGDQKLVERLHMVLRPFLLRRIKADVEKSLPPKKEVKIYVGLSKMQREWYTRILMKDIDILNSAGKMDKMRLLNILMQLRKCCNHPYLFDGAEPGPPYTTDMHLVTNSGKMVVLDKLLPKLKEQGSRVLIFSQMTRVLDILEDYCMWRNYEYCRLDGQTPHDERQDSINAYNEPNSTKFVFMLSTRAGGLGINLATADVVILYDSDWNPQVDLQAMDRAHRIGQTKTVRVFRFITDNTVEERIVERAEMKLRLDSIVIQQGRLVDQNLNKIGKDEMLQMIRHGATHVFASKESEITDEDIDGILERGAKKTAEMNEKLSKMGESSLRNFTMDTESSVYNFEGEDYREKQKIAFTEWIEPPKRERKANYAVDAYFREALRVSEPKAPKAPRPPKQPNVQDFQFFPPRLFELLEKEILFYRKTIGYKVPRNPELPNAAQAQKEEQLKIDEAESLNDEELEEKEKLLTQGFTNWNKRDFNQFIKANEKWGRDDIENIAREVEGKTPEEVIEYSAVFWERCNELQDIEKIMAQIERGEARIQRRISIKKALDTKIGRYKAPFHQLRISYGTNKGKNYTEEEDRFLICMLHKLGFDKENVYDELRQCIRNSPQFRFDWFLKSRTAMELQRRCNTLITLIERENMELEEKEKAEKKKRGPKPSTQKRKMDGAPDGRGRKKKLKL

This assay addresses WT-NSD1 (UniProt Q96L73). The experiment in a line: affinity purification with mass spectrometry; separate analysis of the interactomes of WT NSD1 and the NUP98 N-terminus as baits; details in Supplementary Fig. 1 and Tables 2 and 3.

Results are given in words; binding and its absence hold for the method and conditions named. In cells and extracts the contact can be indirect. These calls come from enrichment with a bait or labelling near it, and not all partners need be listed.

Turning to SMARCA5 (from UniProt O60264 1-1052), the binding entry is on record as “binds”.
